Reference: PMC3973595
These are yes or no findings as the source states them, for the method shown. Some entries that bind do so weakly or less than the wild type.

Chains of the proteins cited; added tags and fusions are not shown. Lines headed by an entry give the natural chain unless they say otherwise; changes in a name come on top.
UniProt P13612: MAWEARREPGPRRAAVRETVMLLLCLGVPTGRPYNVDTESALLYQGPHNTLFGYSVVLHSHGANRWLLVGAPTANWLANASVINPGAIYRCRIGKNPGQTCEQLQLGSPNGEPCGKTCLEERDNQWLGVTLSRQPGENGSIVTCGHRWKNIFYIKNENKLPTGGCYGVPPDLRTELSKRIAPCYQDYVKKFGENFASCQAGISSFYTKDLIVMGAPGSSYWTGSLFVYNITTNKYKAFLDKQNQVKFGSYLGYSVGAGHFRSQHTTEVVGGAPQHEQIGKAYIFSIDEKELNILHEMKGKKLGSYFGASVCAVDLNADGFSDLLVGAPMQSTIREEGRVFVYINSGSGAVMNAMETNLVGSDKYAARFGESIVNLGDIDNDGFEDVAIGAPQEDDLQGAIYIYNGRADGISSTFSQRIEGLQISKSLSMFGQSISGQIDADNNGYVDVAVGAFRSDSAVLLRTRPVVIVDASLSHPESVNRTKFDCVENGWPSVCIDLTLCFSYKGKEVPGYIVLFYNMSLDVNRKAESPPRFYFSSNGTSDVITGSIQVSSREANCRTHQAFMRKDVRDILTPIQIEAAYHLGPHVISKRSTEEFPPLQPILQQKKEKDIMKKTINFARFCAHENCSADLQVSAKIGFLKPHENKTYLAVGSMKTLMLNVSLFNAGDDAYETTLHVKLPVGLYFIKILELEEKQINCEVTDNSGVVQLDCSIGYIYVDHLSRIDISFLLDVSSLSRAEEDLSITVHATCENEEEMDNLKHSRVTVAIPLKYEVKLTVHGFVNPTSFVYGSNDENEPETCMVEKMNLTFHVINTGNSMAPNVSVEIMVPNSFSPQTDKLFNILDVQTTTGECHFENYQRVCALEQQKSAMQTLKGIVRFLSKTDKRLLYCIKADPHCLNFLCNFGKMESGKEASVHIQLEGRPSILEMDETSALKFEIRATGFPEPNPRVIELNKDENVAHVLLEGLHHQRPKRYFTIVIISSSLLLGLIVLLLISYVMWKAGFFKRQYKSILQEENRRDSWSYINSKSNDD
UniProt P06756: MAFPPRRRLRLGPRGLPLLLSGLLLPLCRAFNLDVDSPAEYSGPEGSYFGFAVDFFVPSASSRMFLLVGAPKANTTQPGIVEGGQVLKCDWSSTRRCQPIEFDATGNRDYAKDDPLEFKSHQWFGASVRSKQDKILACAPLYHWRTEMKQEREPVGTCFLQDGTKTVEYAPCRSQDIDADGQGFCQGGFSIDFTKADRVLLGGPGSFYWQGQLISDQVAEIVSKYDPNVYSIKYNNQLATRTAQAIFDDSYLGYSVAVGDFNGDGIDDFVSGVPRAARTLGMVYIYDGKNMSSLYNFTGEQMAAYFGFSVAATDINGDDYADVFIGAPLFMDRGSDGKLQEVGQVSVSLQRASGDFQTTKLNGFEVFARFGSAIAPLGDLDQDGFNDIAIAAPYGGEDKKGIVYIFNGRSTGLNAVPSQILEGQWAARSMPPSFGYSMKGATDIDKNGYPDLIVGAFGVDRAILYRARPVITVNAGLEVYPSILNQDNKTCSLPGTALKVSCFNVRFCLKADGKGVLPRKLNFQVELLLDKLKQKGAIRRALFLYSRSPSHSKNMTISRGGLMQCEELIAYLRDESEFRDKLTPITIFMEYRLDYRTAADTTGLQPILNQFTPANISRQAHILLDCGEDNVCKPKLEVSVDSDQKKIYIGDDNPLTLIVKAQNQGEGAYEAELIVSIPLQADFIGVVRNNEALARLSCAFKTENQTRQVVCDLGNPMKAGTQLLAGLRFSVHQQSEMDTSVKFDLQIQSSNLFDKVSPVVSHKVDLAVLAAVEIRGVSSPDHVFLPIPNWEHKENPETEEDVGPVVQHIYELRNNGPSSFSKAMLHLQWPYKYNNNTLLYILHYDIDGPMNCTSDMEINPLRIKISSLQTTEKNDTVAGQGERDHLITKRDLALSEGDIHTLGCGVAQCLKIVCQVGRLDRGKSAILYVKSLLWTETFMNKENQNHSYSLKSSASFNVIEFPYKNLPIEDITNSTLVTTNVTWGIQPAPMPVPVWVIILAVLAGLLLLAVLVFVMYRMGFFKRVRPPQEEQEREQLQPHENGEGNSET

Target: T1, monomeric C-reactive protein (mCRP) (human) (UniProt P02741)
T1 sequence: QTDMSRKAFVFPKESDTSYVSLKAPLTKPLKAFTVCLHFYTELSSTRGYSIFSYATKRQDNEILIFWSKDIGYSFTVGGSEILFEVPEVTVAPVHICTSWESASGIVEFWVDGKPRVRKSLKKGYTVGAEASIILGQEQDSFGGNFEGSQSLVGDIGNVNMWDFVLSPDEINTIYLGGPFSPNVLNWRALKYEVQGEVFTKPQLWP
Assay: cell adhesion assay; mCRP or pCRP coated on wells, blocked with BSA; U937 cells (10^5 cells/well) for 1 h in RPMI1640; with antagonists: mAb 7E3, SG73, AIIB2 25 μg/ml, cyclic RGDfV 10 μM, BIO1211 1 μM (mCRP coated at 2.5 μM); only the target purified

Substance	binding
integrin α4β1 on U937 monocytic cells (from UniProt P13612 34-1032; P05556 21-798) (receptor)	binds
integrin αvβ3 on U937 monocytic cells (from UniProt P06756 31-1048; P05106 27-788) (receptor)	binds
